Source: patent US20240182551A1

B1: CC9.3 (IgG) (antibody, V domains shown)
VH: QVQLQESGPGLVKPSETLSLTCTVSGGSIRSDFWSWIRQFPGKGLEWIGYIYYSGSTNYNPSLESRVTISVDTSKNEFSLKLNYVTAADTAIYYCARETRWNWLDSWGQGTLVTVSS
VL: DIVMTQSPDSLAVSLGERASINCKSSQTISYISNNKNYLAWYQQKPGQPPRLLIYWASTRESGVPDRFSGGGFGTDFTLTISSLQAEDVAVYYCQQYFNTPWTFGQGTKVEIK
B2: CC40.8 (IgG) (antibody, V domains shown)
VH: EVQLLESGGGLVQPGGSLRLSCAASGFTFSSYVMTWARQAPGKGLEWVSAISGTGYTYYADSVKGRFTVSRDNSKNTLFLQMSSLRAEDTAVYYCAITMAPVVWGQGTTVTVSS
VL: SYELTQPPSVSVSPGQTARITCSGDALPKRYAYWYQQKSGQAPILVIYEDKKRPSGIPERLSGSKSGTVATLTISGAQVEDEADYYCYSTDSSGNHAVFGGGTQLTVL
B3: CC40.5 (IgG) (antibody, V domains shown)
VH: EVQLVESGGGVVQPGRSLRLSCVASGFTFSNYGMHWVRQAPGKGLEWVAVMSYDGSVTYYGDSVRGRFTISRDNSKNTLYLQMSSLRTDDTGVYYCAKGQPLDDIWGLGTLVTVSS
VL: EIVMTQSPLSLPVSLGQSASISCRSSQSLVHTDGITYLSWFQQRPGQSPRRLLYKVSNRDSGVPDRFSGSGSGTDFTLKISRVEAEDVGVYYCLQGTYWPWTFGQGTKVEIK
B4: CC9.1 (IgG) (antibody, V domains shown)
VH: EVQLVESGGGLVQPGRSLRLSCVAPGFTLGGYGMHWVRQAPGKGLEWVGLISYDGSVQKYGSSVKGRFTISKDNSKNTLYLEMNSLRADDTAVYFCVKGASLGDNWGQGTLVTVSS
VL: EIVMTQSPLSLPVTLGQPASISCRSSQSLVYSDGDTYMSWFHQRPGQSPRRLIYKVSNRDSGVPDRFSGSGSGTDFTLKISRVEAEDVGVYYCMQGTHWPYTFGPGTKVEIK
B5: CC9.2 (IgG) (antibody, V domains shown)
VH: EVQLVESGGGLVQPGRSLRLSCVAPGFTLGGYGMHWVRQAPGKGLEWVGLISYDGSVQKYGSSVKGRFTISKDNSKNTLYLEMNSLRADDTAVYFCVKGASLGDNWGQGTLVTVSS
VL: EIVMTQSPLSLPVTLGQPASISCRSSQSLVYSDGDTYMSWFHQRPGQSPRRLIYKVSNRDFGVPDRFSGSGSGTDFTLKISRVEAEDVGVYYCMQGTHWPYTFGPGTKVEIK

These binders were tested against HCoV-229E full-length spike expressed on HEK293T cell surface (HCoV-229E) (assay: CELISA on 293T cells (FIG. 4A); ELISA/BLI (FIG. 12)).
B1 was tested, and the binding was “no binding”. With B2 the binding was “no binding”. With B3 the binding was “no binding”. For B4, the binding was “no binding”. With B5 the binding was “no binding”.

These are yes or no findings as the source states them, for the method shown.
